PubChem BioAssay AID1259254 | NCATS – 2017
The whole screen tested about 59,000 reagents; this is a random part of them. About 1,550 of all reagents (2.6%) were called active. 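G2 share is only a proxy for re-replication; each gene was hit by three separate siRNAs, and active genes were retested.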 Raw values vary from plate to plate and are shown uncorrected. A number with no mark means an inactive call. Reagents against one gene are numbered here. The record does not give: the amount of reagent.

- Screen: 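Finding genes that stop cells copying their DNA twice in one cycle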 (primary screen)
- Cells: human HCT116 colorectal cancer cells
- Knock-down reagent: single siRNA against human genes
- Timing: 3 days
- Read-out: 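Imaged Hoechst DNA stain sorts each cell into a cycle phase by DNA amount; per plate, G2 fraction set to 0% for non-targeting and 100% for GMNN siRNA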
- Reading the numbers: G2 robust z-score and G2 cells, % of GMNN control: higher = more G2 cells, more excess DNA replication; raw share of cells in G2: higher = larger share of cells with G2 DNA content
- Rule for the call: 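An siRNA counts as active if its G2 robust z-score lies at least 5 MADs above the screen median; here such calls match roughly 38% of GMNN control or more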

target	siRNA no.	G2 robust z-score	G2 cells, % of GMNN control	raw share of cells in G2 (%)
FPGT	1	0.398	5.77	6.77
FPGT	2	1.85	16	10.9
FPGT	3	0.18	4.23	6.46
CNOT3	1	0.242	4.67	5.31
CNOT3	2	-0.0494	2.62	6.07
CNOT3	3	1.38	12.7	7.71
THRB	1	-0.248	1.22	6.09
THRB	2	0.496	6.46	6.76
THRB	3	-0.846	-2.99	2.97
TMEM62	1	0.215	4.48	6.3
TMEM62	2	1.03	10.2	8.77
TMEM62	3	-0.0652	2.51	3.06
THEM5	1	0.41	5.85	5.77
THEM5	2	-0.758	-2.36	2.13
THEM5	3	1.12	10.8	6.56
NET1	1	-0.8	-2.66	4.13
NET1	2	-0.205	1.53	4.58
NET1	3	-0.274	1.04	3.78
ELK1P1	1	-0.192	1.62	3.56
ELK1P1	2	1.85	16	9.81
ELK1P1	3	0.371	5.58	5.29
TRPV6	1	-0.915	-3.47	4.03
TRPV6	2	-1.32	-6.34	2.64
TRPV6	3	-1.11	-4.82	2.49
PGAM5	1	0.387	5.69	4.87
PGAM5	2	-0.341	0.571	2.94
PGAM5	3	0.00908	3.03	4.69
CLDN12	1	0.115	3.78	6.81
CLDN12	2	0.462	6.21	6.36
CLDN12	3	-0.847	-2.99	2.29
MTUS2-AS1	1	-1.03	-4.26	1.99
MTUS2-AS1	2	2.54	20.8	11.4
MTUS2-AS1	3	0.968	9.78	6.32
NANOS2	1	0.173	4.18	6.59
NANOS2	2	-0.557	-0.948	3.94
NANOS2	3	-0.602	-1.27	5.36
CLEC9A	1	0.585	7.08	6.22
CLEC9A	2	1.24	11.7	7.57
CLEC9A	3	0.688	7.81	5.64
MKLN1	1	0.927	9.49	9.01
MKLN1	2	0.103	3.69	5.68
MKLN1	3	-0.278	1.01	3.72
CHD7	1	3.94	30.7	19.9
CHD7	2	-0.8	-2.66	3.49
CHD7	3	-0.793	-2.61	3.24
DLX1	1	0.165	4.13	5.52
DLX1	2	0.113	3.76	6.3
DLX1	3	-0.399	0.158	5.05

Records listed so far whose target name starts with F or f:
target	siRNA no.	G2 robust z-score	G2 cells, % of GMNN control	raw share of cells in G2 (%)
FPGT	1	0.398	5.77	6.77
FPGT	2	1.85	16	10.9
FPGT	3	0.18	4.23	6.46
